Reference: PubChem BioAssay AID1259405 (NCATS, 2018)

Purpose: 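Knock-downs that lift recombinant protein yield in hamster ovary cells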 (primary screen)
Cells: Chinese hamster CHO-K1 ovary cells with stable secreted eGFP expression
Reagent: single siRNA against mouse genes, 0.8 pmol siRNA per well (2 µl of 400 nM stock)
Duration: 3 days
Read-out: 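Percent of the per-plate non-targeting control median for intracellular GFP per well by laser scanning cytometry and for cell viability by ATP luminescence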
Direction: GFP, % of control: higher = more GFP per well, higher productivity; viability (ATP), % of control: higher = more viable cells (more ATP)
Call rule: 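Called active when intracellular GFP, relative to negative control, is at or above 120%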
Here is a random part of about 50,000 reagents. In the full data, about 4,000 (8%) got an active call. 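Mouse siRNA library applied to hamster cells; one well for each siRNA.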 Reagents against one gene are numbered here.

Abhd12 (GeneID 76192) #1
- GFP, % of control: 76.7
- viability (ATP), % of control: 74.2
- Call: inactive

Abhd12 (GeneID 76192) #2
- GFP, % of control: 134
- viability (ATP), % of control: 89.7
- Call: active

Abhd12 (GeneID 76192) #3
- GFP, % of control: 121
- viability (ATP), % of control: 118
- Call: active

Nek4 (GeneID 23955)
- GFP, % of control: 45.6
- viability (ATP), % of control: 37
- Call: inactive

Zfp292 (GeneID 30046) #1
- GFP, % of control: 76.5
- viability (ATP), % of control: 91.8
- Call: inactive

Zfp292 (GeneID 30046) #2
- GFP, % of control: 78.2
- viability (ATP), % of control: 63.4
- Call: inactive

Zfp292 (GeneID 30046) #3
- GFP, % of control: 94.1
- viability (ATP), % of control: 112
- Call: inactive

Insc (GeneID 233752) #1
- GFP, % of control: 40.5
- viability (ATP), % of control: 40
- Call: inactive

Insc (GeneID 233752) #2
- GFP, % of control: 54
- viability (ATP), % of control: 80.3
- Call: inactive

Insc (GeneID 233752) #3
- GFP, % of control: 73
- viability (ATP), % of control: 76.2
- Call: inactive

Calml4 (GeneID 75600) #1
- GFP, % of control: 82.1
- viability (ATP), % of control: 79.3
- Call: inactive

Calml4 (GeneID 75600) #2
- GFP, % of control: 60.2
- viability (ATP), % of control: 58.5
- Call: inactive

Calml4 (GeneID 75600) #3
- GFP, % of control: 128
- viability (ATP), % of control: 137
- Call: active

Mob3c (GeneID 100465) #1
- GFP, % of control: 81.1
- viability (ATP), % of control: 78.7
- Call: inactive

Mob3c (GeneID 100465) #2
- GFP, % of control: 64.1
- viability (ATP), % of control: 69.7
- Call: inactive

Mob3c (GeneID 100465) #3
- GFP, % of control: 98
- viability (ATP), % of control: 108
- Call: inactive

Tfap4 (GeneID 83383) #1
- GFP, % of control: 104
- viability (ATP), % of control: 76.2
- Call: inactive

Tfap4 (GeneID 83383) #2
- GFP, % of control: 84.8
- viability (ATP), % of control: 70.4
- Call: inactive

Tfap4 (GeneID 83383) #3
- GFP, % of control: 67.9
- viability (ATP), % of control: 70.7
- Call: inactive

Ankrd55 (GeneID 77318) #1
- GFP, % of control: 59.1
- viability (ATP), % of control: 55.6
- Call: inactive

Ankrd55 (GeneID 77318) #2
- GFP, % of control: 73.3
- viability (ATP), % of control: 79.6
- Call: inactive

Ankrd55 (GeneID 77318) #3
- GFP, % of control: 88.9
- viability (ATP), % of control: 110
- Call: inactive

Adck1 (GeneID 72113) #1
- GFP, % of control: 55.5
- viability (ATP), % of control: 101
- Call: inactive

Adck1 (GeneID 72113) #2
- GFP, % of control: 94.8
- viability (ATP), % of control: 99.4
- Call: inactive

Adck1 (GeneID 72113) #3
- GFP, % of control: 59.2
- viability (ATP), % of control: 119
- Call: inactive

Pak4 (GeneID 70584) #1
- GFP, % of control: 130
- viability (ATP), % of control: 73.2
- Call: active

Pak4 (GeneID 70584) #2
- GFP, % of control: 87.9
- viability (ATP), % of control: 75.2
- Call: inactive

Pak4 (GeneID 70584) #3
- GFP, % of control: 83.9
- viability (ATP), % of control: 99.7
- Call: inactive

Itpkc (GeneID 233011)
- GFP, % of control: 79.5
- viability (ATP), % of control: 71.1
- Call: inactive

Cep97 (GeneID 74201) #1
- GFP, % of control: 49.7
- viability (ATP), % of control: 85.2
- Call: inactive

Cep97 (GeneID 74201) #2
- GFP, % of control: 77.9
- viability (ATP), % of control: 68.5
- Call: inactive

Cep97 (GeneID 74201) #3
- GFP, % of control: 73.2
- viability (ATP), % of control: 67.3
- Call: inactive

Fdx1 (GeneID 14148) #1
- GFP, % of control: 102
- viability (ATP), % of control: 87.2
- Call: inactive

Fdx1 (GeneID 14148) #2
- GFP, % of control: 74.1
- viability (ATP), % of control: 77.7
- Call: inactive

Fdx1 (GeneID 14148) #3
- GFP, % of control: 72
- viability (ATP), % of control: 88.3
- Call: inactive

Tmem229b (GeneID 268567) #1
- GFP, % of control: 90.3
- viability (ATP), % of control: 67.1
- Call: inactive

Tmem229b (GeneID 268567) #2
- GFP, % of control: 57.9
- viability (ATP), % of control: 78.8
- Call: inactive

Tmem229b (GeneID 268567) #3
- GFP, % of control: 40.3
- viability (ATP), % of control: 64.3
- Call: inactive

Acaa2 (GeneID 52538) #1
- GFP, % of control: 97.6
- viability (ATP), % of control: 72.8
- Call: inactive

Acaa2 (GeneID 52538) #2
- GFP, % of control: 84.9
- viability (ATP), % of control: 113
- Call: inactive

Acaa2 (GeneID 52538) #3
- GFP, % of control: 129
- viability (ATP), % of control: 142
- Call: active

A portion from the list above, for reference:
Tmem229b (GeneID 268567) #3
- GFP, % of control: 40.3
- viability (ATP), % of control: 64.3
- Call: inactive

Acaa2 (GeneID 52538) #1
- GFP, % of control: 97.6
- viability (ATP), % of control: 72.8
- Call: inactive

Acaa2 (GeneID 52538) #2
- GFP, % of control: 84.9
- viability (ATP), % of control: 113
- Call: inactive

Acaa2 (GeneID 52538) #3
- GFP, % of control: 129
- viability (ATP), % of control: 142
- Call: active
